Values from PubChem BioAssay AID1259331 (Drosophila RNAi Screening Center, 2017)

- Aim: 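Knock-downs that alter ATP level after a high zinc chloride dose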 (primary screen)
- System: Drosophila S2R+ cells
- Knock-down reagent: long dsRNA against Drosophila genes
- Duration: 5 days (4 days knock-down, then 1 day zinc)
- Treatment: zinc chloride at 15 mM final level for 1 day
- Measured: 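Total cellular ATP measured by luciferase luminescence as a viability proxy, turned into Z scores from three plate copies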
- Direction: mean Z score: higher = more ATP than other wells, better survival under zinc; ATP luminescence: higher = more ATP, more viable cells
- Call rule: 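Hit when the absolute Z score is greater than 1.5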
- Meaning of the calls: active = hit, ATP up or down; inactive = not a hit
This is one part, drawn at random, of about 3,100 reagents tested. 126 of them (4.1%) count as active. 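Calls are per reagent; zinc was so toxic that few knock-downs lowered ATP further, so most hits raise ATP.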 Raw values are not corrected between plates. Unmarked entries are inactive. The numbers tell different reagents against one gene apart. The record does not give: the amount of reagent.

Target gene	reagent	mean Z score	ATP luminescence, replicate 1	ATP luminescence, replicate 2
CG7091	1	-0.424	34364	53000
CG7091	2	-0.249	34124	50921
Gr64a (Gustatory receptor 64a)	1	-0.539	38445	44737
Gr64a (Gustatory receptor 64a)	2	-0.112	57991	57785
CG30471	1	-0.495	23543	30833
Tsp42Eq (Tetraspanin 42Eq)	1	0.22	77165	77028
TyrR (Tyramine receptor)	1	0.318	38839	60992
TyrR (Tyramine receptor)	2	-0.142	57254	58334
CG3168	1	-0.286	40982	44257
CG3168	2	-0.622	52515	51081
CG9826	1	1.36	65297	44357
CG31522	1	-0.527	57254	57382
CG31522	2	-0.138	43091	42902
mAChR-C (muscarinic Acetylcholine Receptor, C-type)	1	-0.532	55796	58694
mAChR-C (muscarinic Acetylcholine Receptor, C-type)	2	0.252	62690	59911
wls (wntless)	1	-0.316	31930	26051
wls (wntless)	2	-0.505	53430	53790
Gr22e (Gustatory receptor 22e)	1	-0.614	42354	31404
Nup153 (Nucleoporin 153kD)	1	0.421	48903	54664
CG32579	1	0.419	70356	75710
CG32579	2	-0.00284	66240	60495
bwa (brain washing)	1	0.401	49555	48286
bwa (brain washing)	2	0.541	55419	50481
CrzR (Corazonin receptor)	1	0.305	82843	63702
CrzR (Corazonin receptor)	2	-0.0179	40409	43434
DAT (Dopamine transporter)	1	-0.187	62913	67475
rtet (tetracycline resistance)	1	0.834	52298	58025
rtet (tetracycline resistance)	2	0.604	62673	66943
